Results taken from PubChem BioAssay (Tox21).
Where “and” joins values, the source holds several entries; their conditions need not be identical. Equal entries are not always repeated. The inconclusive results got no clear call from the source; some entries with a clear call stand among them for comparison. A potency beside an inconclusive call is a rough fit, not a confirmed value. Calls of active or inactive are those of the source. Calls come from the whole dose curve.

Assay: p53 small molecule agonists, cell-based qHTS assay: qHTS cell viability counter screen (AID 1963581); note: nearly all actives have a fitted effect of over 45% in size
Details: p53RE-bla HCT-116 viability, ATP luminescence, 16 h; series mostly up to 66 µM
How it was run: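 p53RE-bla HCT-116 cells were exposed to compounds for 16 h at 37 C; after the beta-lactamase FRET read in the same wells, CellTiter-Glo was added and luminescence (intracellular ATP) read after 30 min at room temperature.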
% is set by controls: 0 for no effect and ±100 for the full control effect; potency is the fitted concentration of half-maximal effect.

Row | Compound | Potency | activity change, negative = cytotoxicity
1 | N[C@H](Cc1c[nH]c2ccccc12)C(=O)O | inconclusive: 4.58 µM [cytotoxic, single point] | –
2 | C=C[C@@H](C)CCC=C(C)C | inactive | –
3 | CC(=O)c1ccccc1N | inactive | –
4 | O=C(O)c1ccccc1Nc1cc(Cl)ccc1C(=O)O | – | inactive: -5.7% [at 13.5 µM]
5 | O=C1Nc2ccccc2C1(c1ccc(O)cc1)c1ccc(O)cc1 | inconclusive: 2.04 µM [cytotoxic, full curve, poor fit] and inconclusive: 1.12 µM [cytotoxic, full curve, poor fit] | –
6 | CCCCOC(=O)c1ccc(O)cc1 | inconclusive: 36.3 µM [rising, partial curve] | –
7 | NC(=O)c1ccc([N+](=O)[O-])cc1Cl | inactive | –
8 | CCCCC/C(C=O)=C\c1ccccc1 | inconclusive: 45.8 µM [cytotoxic, single point] | –
9 | Oc1cccc(Nc2ccccc2)c1 | inactive | –
10 | CC(=O)CC(=O)Nc1ccc(S(=O)(=O)O)cc1 | inconclusive: 1.02 µM [cytotoxic, single point] | –
11 | CC(CN)CCCN (centres undefined) | inconclusive: 10.2 µM [rising, full curve, poor fit] | –
12 | Oc1c(Br)cc(Br)c2cccnc12 | inconclusive: 22.3 µM [cytotoxic, single point] | –
13 | O=C1CCN(c2ccccc2)N1 | inactive | –
14 | C=C1CC[C@H](O)CC1=C/C=C1\CCC[C@]2(C)[C@@H]([C@H](C)/C=C/[C@H](C)C(C)C)CC[C@@H]12 | inconclusive: 51.3 µM [cytotoxic, single point] | –

2 compounds drawn at random from the list so far, as already listed:
Row | Compound | Potency | activity change, negative = cytotoxicity
4 | O=C(O)c1ccccc1Nc1cc(Cl)ccc1C(=O)O | – | inactive: -5.7% [at 13.5 µM]
13 | O=C1CCN(c2ccccc2)N1 | inactive | –
